{
  "source": "paper PMC7819943",
  "about": "“Rice protein-binding microarrays: a tool to detect cis-acting elements near promoter regions in rice”",
  "note": "The list shows a part of the results.",
  "data": [
    {"molecular_target": "T1, OsSMF1 (Oryza sativa, UniProt Q6ZLB0 1-436)", "T1 sequence": "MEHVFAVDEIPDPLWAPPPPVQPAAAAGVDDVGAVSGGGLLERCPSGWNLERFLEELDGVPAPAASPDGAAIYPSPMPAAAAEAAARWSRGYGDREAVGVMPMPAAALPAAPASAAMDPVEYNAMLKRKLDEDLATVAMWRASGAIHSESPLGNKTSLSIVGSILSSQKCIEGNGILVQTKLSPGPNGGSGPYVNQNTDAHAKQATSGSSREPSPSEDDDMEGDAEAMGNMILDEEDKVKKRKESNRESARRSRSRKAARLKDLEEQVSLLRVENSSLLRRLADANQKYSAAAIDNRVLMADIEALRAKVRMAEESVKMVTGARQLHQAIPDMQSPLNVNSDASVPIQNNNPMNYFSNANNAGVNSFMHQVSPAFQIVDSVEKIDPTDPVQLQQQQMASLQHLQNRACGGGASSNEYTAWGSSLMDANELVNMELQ", "assay": "protein-binding microarray (RPBM); PBS, 2% BSA, 51.3 ng/ul salmon testes DNA, 50 uM zinc acetate, 200 nM TF, 25 C, 1 h; high values mean tight binding", "settings": "protein: recombinant; tags: N-terminal polyhistidine and DsRed monomer fusion (pET32a); chain copies: 2; label: CyDye5-dUTP incorporated in the synthesized complementary strand; 3' TTTTT single-stranded linker to array surface; dsDNA, one strand shown", "outline": "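Binding signal here means per-feature fluorescence intensity in arbitrary units. The values were read on an Axon 4000B scanner after a custom Agilent array, double-stranded by primer extension with Cy5-dUTP, was incubated with 200 nM protein at 25 °C for 1 h in PBS with 2% BSA, salmon testes DNA and 50 µM zinc acetate, then washed. The proteins were transcription factors with an N-terminal polyhistidine tag and DsRed, expressed in E. coli BL21-CodonPlus and purified on Ni–NTA.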", "values": [
      {"sequence": "AGGTGGAGACACGTGGAGGAGTCGCATGTGGACATCACAGCGGAGTCACCTAGTGCAG", "binding signal": "5000 fluorescence intensity (a.u.)"},
      {"sequence": "GCTGTTTTCTTCTACATTGCGTCCGCGTGGCAATCCAGTCCGGAGTCACCTAGTGCAG", "binding signal": "8770 fluorescence intensity (a.u.)"},
      {"sequence": "CACTTATGTATGTGATGCGAAAAGGAGGCGTGTGACTTGTCGGAGTCACCTAGTGCAG", "binding signal": "3270 fluorescence intensity (a.u.)"},
      {"sequence": "TTATGAGAAATTACGTAATGCTATTCTCAACCATGCAACCCGGAGTCACCTAGTGCAG", "binding signal": "3460 fluorescence intensity (a.u.)"},
      {"sequence": "TGATCGATCACTCTCACACAGCTAGCTGCACGTAAGCTAGCGGAGTCACCTAGTGCAG", "binding signal": "3200 fluorescence intensity (a.u.)"},
      {"sequence": "GTTGGATAGAGTAGAGGGAGGAGTAAGTATGTCATGTGGGCGGAGTCACCTAGTGCAG", "binding signal": "3220 fluorescence intensity (a.u.)"},
      {"sequence": "GGTCATGGTTTTGGCACGCTTGGATTTGACGCCGCCGGCACGGAGTCACCTAGTGCAG", "binding signal": "3700 fluorescence intensity (a.u.)"},
      {"sequence": "CGCGACGAGATTGGGTTTCGGTCGTCGTACCGTGTCCGTGCGGAGTCACCTAGTGCAG", "binding signal": "3680 fluorescence intensity (a.u.)"},
      {"sequence": "GAATAACCCCTTGCAATAATTTTATTTACGGATAGGTCCCCGGAGTCACCTAGTGCAG", "binding signal": "17200 fluorescence intensity (a.u.)"},
      {"sequence": "GTTTTCCAAAATTTCTTCGTCACGCCCAATTTATCGGATCCGGAGTCACCTAGTGCAG", "binding signal": "4120 fluorescence intensity (a.u.)"},
      {"sequence": "TCGAGCTCCACGTAGGCGACGGCGTCCAGTTCGTAGGCGTCGGAGTCACCTAGTGCAG", "binding signal": "13000 fluorescence intensity (a.u.)"},
      {"sequence": "GTACTCACTCTCAGTGTCACTCACTTCACTGCTTACACCGCGGAGTCACCTAGTGCAG", "binding signal": "4370 fluorescence intensity (a.u.)"},
      {"sequence": "CCGCCCCGCCTGCGAAGACCCTTTTCGGCCGCTTGCGATACGGAGTCACCTAGTGCAG", "binding signal": "3290 fluorescence intensity (a.u.)"},
      {"sequence": "GGAGCCTCATTAGCCTGAGTCAGGCGACCGTTTTCGGTCGCGGAGTCACCTAGTGCAG", "binding signal": "4840 fluorescence intensity (a.u.)"},
      {"sequence": "ACTCCACCATGGCCGACATGTCAGCGTGCGTTCGTCGATACGGAGTCACCTAGTGCAG", "binding signal": "5650 fluorescence intensity (a.u.)"},
      {"sequence": "GGGCACACAAGGAATTTACTCTTATCATTTAGATGGAGATCGGAGTCACCTAGTGCAG", "binding signal": "18200 fluorescence intensity (a.u.)"},
      {"sequence": "GGCGAGCAATACCATAGCGTTGGTGTCCGGACCACCACTACGGAGTCACCTAGTGCAG", "binding signal": "3410 fluorescence intensity (a.u.)"},
      {"sequence": "GCTAAGAGCAATAGTAGGGAAACAGACCAGTGACCTGGTGCGGAGTCACCTAGTGCAG", "binding signal": "4280 fluorescence intensity (a.u.)"},
      {"sequence": "ATAGCTAAAGAAGAAGGAGAAGCTACGTACGTGTACATGACGGAGTCACCTAGTGCAG", "binding signal": "5640 fluorescence intensity (a.u.)"},
      {"sequence": "ACTGGGTCAGTTCTCTTTGACAGTTCACTGCTGTCTCTAGCGGAGTCACCTAGTGCAG", "binding signal": "3860 fluorescence intensity (a.u.)"},
      {"sequence": "TCCGGGCTGGGTGGGTGGGGTGGGGATGGAGCTTGCCTGGCGGAGTCACCTAGTGCAG", "binding signal": "9640 fluorescence intensity (a.u.)"},
      {"sequence": "GTAAAAGTAACAAGTTTAATAGATGTACGTTTTATCGCAACGGAGTCACCTAGTGCAG", "binding signal": "31900 fluorescence intensity (a.u.)"},
      {"sequence": "GACTAATTAGGCTCAAAATATTCGTGTCGCGATTTTCATGCGGAGTCACCTAGTGCAG", "binding signal": "3500 fluorescence intensity (a.u.)"},
      {"sequence": "TTGCTGAATTGATGACTTCCGCTCCTGGATTGCATGCATGCGGAGTCACCTAGTGCAG", "binding signal": "3180 fluorescence intensity (a.u.)"},
      {"sequence": "GAACTCGCGACACCCGCCGGCGAAGGAGCAGCAGCACAGGCGGAGTCACCTAGTGCAG", "binding signal": "5010 fluorescence intensity (a.u.)"},
      {"sequence": "ACTTGTCAATTTCCCATCACAAAGAACTAAAACCACCCATCGGAGTCACCTAGTGCAG", "binding signal": "16700 fluorescence intensity (a.u.)"},
      {"sequence": "ATTCAGATATTAGTGCAACTGCGCCATGACCACCAAAGAACGGAGTCACCTAGTGCAG", "binding signal": "3710 fluorescence intensity (a.u.)"},
      {"sequence": "AATTCTGCCTACCGCCGCTTCATTTTGTGGCCTTGGGATCCGGAGTCACCTAGTGCAG", "binding signal": "20100 fluorescence intensity (a.u.)"},
      {"sequence": "GTGGTTGGTGACAGCAACTCGCCTCCTTCCTCCTCACTCCCGGAGTCACCTAGTGCAG", "binding signal": "4080 fluorescence intensity (a.u.)"},
      {"sequence": "CTAGCTCTTGATGCGTATTTGTCCCTTCAGTGAATCAGTGCGGAGTCACCTAGTGCAG", "binding signal": "3210 fluorescence intensity (a.u.)"},
      {"sequence": "AATCGTCGCGGTTAAAATAAACTGATTTTAACTTACTACACGGAGTCACCTAGTGCAG", "binding signal": "3200 fluorescence intensity (a.u.)"},
      {"sequence": "ACAAACTTCAAGTCACCAGTATAATTTTCGTTATTTCTGTCGGAGTCACCTAGTGCAG", "binding signal": "3190 fluorescence intensity (a.u.)"},
      {"sequence": "ATGCATACATGCCAGATATGACCAAAATTTGACGGTTCGCCGGAGTCACCTAGTGCAG", "binding signal": "3260 fluorescence intensity (a.u.)"},
      {"sequence": "GCACTCTGCCTCCGTTGCCGCCGACGCAGCATGGTCAAGTCGGAGTCACCTAGTGCAG", "binding signal": "7890 fluorescence intensity (a.u.)"},
      {"sequence": "ACACAGGTCGGTCTCTCTGCCTGCCTTTCGGAACGGGAAGCGGAGTCACCTAGTGCAG", "binding signal": "4690 fluorescence intensity (a.u.)"},
      {"sequence": "ACCCGGCGCCGGAGACGCCACCGCCGCATCCTCTGTCCGCCGGAGTCACCTAGTGCAG", "binding signal": "4220 fluorescence intensity (a.u.)"},
      {"sequence": "CACTCCGACCCGACGGCCTCGTCCACGTCACGTGTGCCGCCGGAGTCACCTAGTGCAG", "binding signal": "18400 fluorescence intensity (a.u.)"},
      {"sequence": "ACCAGGGGAGGGGACAGCACACACTATCCATTCCAGTGCCCGGAGTCACCTAGTGCAG", "binding signal": "4110 fluorescence intensity (a.u.)"},
      {"sequence": "TTCTTAATCAACCTACGTCACTTGCATGCTAGCTCAGGCACGGAGTCACCTAGTGCAG", "binding signal": "4940 fluorescence intensity (a.u.)"},
      {"sequence": "CTAGTTCACCTGTCTTTATCAGTTTGCGTTGTGTCATCCGCGGAGTCACCTAGTGCAG", "binding signal": "4320 fluorescence intensity (a.u.)"},
      {"sequence": "CAGCCCGACGGCGGCTGCAGACGTGGTTTCTTCCTCCGCCCGGAGTCACCTAGTGCAG", "binding signal": "3200 fluorescence intensity (a.u.)"},
      {"sequence": "GGAGCAACGGATCCACCGGCTCTGACGCCGATGAACGCGGCGGAGTCACCTAGTGCAG", "binding signal": "3330 fluorescence intensity (a.u.)"},
      {"sequence": "AAAGACAGTCTAACTTCGATTTGTACAGGATAAACAAACCCGGAGTCACCTAGTGCAG", "binding signal": "17100 fluorescence intensity (a.u.)"},
      {"sequence": "GCCAATAATTTTCCAACTCATGTACTTAAGCTGAAAGTTGCGGAGTCACCTAGTGCAG", "binding signal": "3610 fluorescence intensity (a.u.)"},
      {"sequence": "GGTGGTGACAGCCCTGCCCGTACTTTGCATCCCTCCACGTCGGAGTCACCTAGTGCAG", "binding signal": "4540 fluorescence intensity (a.u.)"},
      {"sequence": "CTTAGATACCTTGTGGTTTATATCATGCACCGGCACTGGCCGGAGTCACCTAGTGCAG", "binding signal": "3620 fluorescence intensity (a.u.)"},
      {"sequence": "ACTACTCTCGTACTGTACTACTGTGGCGTGGCTATCTACTCGGAGTCACCTAGTGCAG", "binding signal": "4920 fluorescence intensity (a.u.)"},
      {"sequence": "GTTTCCTTTTAGTCAACTATATGTAGGCATGATGATTCATCGGAGTCACCTAGTGCAG", "binding signal": "3640 fluorescence intensity (a.u.)"},
      {"sequence": "ATCCCTTTTGTGTAGTAATTGTCTAGTTCACATCGTGTCACGGAGTCACCTAGTGCAG", "binding signal": "3680 fluorescence intensity (a.u.)"},
      {"sequence": "ATTAAACCTGAACCTTGTACCTGTACTGTGCCCTTCTATACGGAGTCACCTAGTGCAG", "binding signal": "3400 fluorescence intensity (a.u.)"},
      {"sequence": "TCTCCCGTGGTTTCCGCGGTGGGCTACGTCCACTGTGGCGCGGAGTCACCTAGTGCAG", "binding signal": "3890 fluorescence intensity (a.u.)"},
      {"sequence": "TTAGCCGATTGATCAGGTCAATGAGCCACGTCAGCGAAAACGGAGTCACCTAGTGCAG", "binding signal": "21900 fluorescence intensity (a.u.)"},
      {"sequence": "GCAGTGTCTGTGTTTGGCACGTCCACGACAGCACGAGACGCGGAGTCACCTAGTGCAG", "binding signal": "37100 fluorescence intensity (a.u.)"},
      {"sequence": "CCACCTAACACTAATCAACCAGTCAACCACCACATCTTCCCGGAGTCACCTAGTGCAG", "binding signal": "3820 fluorescence intensity (a.u.)"}
    ]}
  ]
}
